According to PubChem BioAssay AID256 (DTP/NCI, 2004):
The list shows only some results of the screen, not a fair sample: it gathers tests that were run many times, whatever their T/C, doses with no T/C, and many T/C values between a quarter and a half above the control. Further doses and runs are listed elsewhere. T/C is the treated group as % of the vehicle group. Some doses have a count of surviving animals in place of a T/C: the source files T/C as zero there, which appears to mark a toxic dose or a test without result, not a measured value. Some doses without a T/C left all or most animals alive at the check, yet need not have been tolerated: the source hardly ever lists a survival T/C far under the control, and the zero likely stands for such cases as well. Survivors were counted at the toxicity check, usually on the fifth day, unless a day is given; later deaths do not show. Schedules are NCI's codes, taken here to give the interval after Q, in days (D) or hours (H), and the number of doses after X. Some entries hold several experiments; their values stand side by side, smallest first. For survival time, the PubChem record calls one and a half times the control and up active, and a quarter to a half above the control has no call in these data; cut-offs in other NCI protocols can differ.

System: CD2F1 mice, L1210 leukemia ip, survival T/C
Experiment: NCI In Vivo Anticancer Drug Screen. Data for tumor model L1210 Leukemia (intraperitoneal) in CD2F1 (CDF1) mice
Details: higher T/C = longer survival
In short: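 Compound-dosed mice with transplantable tumor versus matched vehicle controls; endpoint ratio T/C reported.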

[1] = T/C endpoint: mean survival time, dose: 0.5 mg/kg/injection, schedule: Q01DX009 (ip), vehicle: saline
[2] = T/C endpoint: mean survival time, dose: 4.0 mg/kg/injection, schedule: Q04DX003 (ip), vehicle: saline
[3] = T/C endpoint: mean survival time, dose: 200.0 mg/kg/injection, schedule: Q04DX003 (ip), vehicle: saline with Tween-80
[4] = T/C endpoint: mean survival time, dose: 400.0 mg/kg/injection, schedule: Q04DX003 (ip), vehicle: saline with Tween-80
[5] = T/C endpoint: mean survival time, dose: 200.0 mg/kg/injection, schedule: Q01DX009 (ip), vehicle: saline with Tween-80

C1CN1c1nc(N2CC2)nc(N2CC2)n1
survivor count (T/C endpoint: mean survival time, dose: 0.25 mg/kg/injection, schedule: Q01DX009 (ip), vehicle: saline): 5 of 6
T/C (T/C endpoint: mean survival time, dose: 0.25 mg/kg/injection, schedule: Q03HX008 (ip), vehicle: saline): 135 % of control
T/C (T/C endpoint: mean survival time, dose: 0.25 mg/kg/injection, schedule: Q03HX016 (ip), vehicle: saline): 133 and 134 % of control
T/C [1]: 135 and 137 % of control
survivor count [1]: 4 of 6
T/C (T/C endpoint: mean survival time, dose: 0.5 mg/kg/injection, schedule: Q03DX003 (ip), vehicle: saline): 136 % of control
T/C (T/C endpoint: mean survival time, dose: 0.5 mg/kg/injection, schedule: Q03HX016 (ip), vehicle: saline): 140 % of control
T/C (T/C endpoint: mean survival time, dose: 0.5 mg/kg/injection, schedule: Q04DX003 (ip), vehicle: saline, evaluated on day 30): 111, 126, 129, 135, 138, 149, 177, 181, 216 % of control
T/C (T/C endpoint: mean survival time, dose: 0.5 mg/kg/injection, schedule: Q04DX003 (ip), vehicle: saline, evaluated on day 60): 134 % of control
T/C (T/C endpoint: mean survival time, dose: 1.0 mg/kg/injection, schedule: Q01DX001 (ip), vehicle: saline, evaluated on day 5): 130 % of control
T/C (T/C endpoint: mean survival time, dose: 1.0 mg/kg/injection, schedule: Q01DX001 (ip), vehicle: saline, evaluated on day 6): 132 % of control
T/C (T/C endpoint: mean survival time, dose: 1.0 mg/kg/injection, schedule: Q04DX003 (ip), vehicle: saline, evaluated on day 30): 133, 140, 151, 159, 160, 195, 196, 223 % of control
T/C (T/C endpoint: mean survival time, dose: 1.0 mg/kg/injection, schedule: Q04DX003 (ip), vehicle: saline, evaluated on day 60): 163 % of control
survivor count (T/C endpoint: mean survival time, dose: 1.0 mg/kg/injection, schedule: Q04DX003 (ip), vehicle: saline): 3 of 6
T/C (T/C endpoint: mean survival time, dose: 2.0 mg/kg/injection, schedule: Q01DX001 (ip), vehicle: saline): 142 % of control
survivor count (T/C endpoint: mean survival time, dose: 2.0 mg/kg/injection, schedule: Q01DX005 (ip), vehicle: saline): 10 of 10
survivor count (T/C endpoint: mean survival time, dose: 2.0 mg/kg/injection, schedule: Q01DX007 (ip), vehicle: saline): 6 of 6
survivor count (T/C endpoint: mean survival time, dose: 2.0 mg/kg/injection, schedule: Q01DX009 (ip), vehicle: saline): 4 of 6
T/C (T/C endpoint: mean survival time, dose: 2.0 mg/kg/injection, schedule: Q04DX003 (ip), vehicle: saline, evaluated on day 30): 90, 94, 112, 117, 140, 143, 151, 153 % of control
T/C (T/C endpoint: mean survival time, dose: 2.0 mg/kg/injection, schedule: Q04DX003 (ip), vehicle: saline, evaluated on day 60): 153 % of control
survivor count (T/C endpoint: mean survival time, dose: 2.0 mg/kg/injection, schedule: Q04DX003 (ip), vehicle: saline): 6 of 6
T/C [2]: 103 % of control
survivor count [2]: 0 of 6, 1 of 6, 3 of 6, 7 of 10, 5 of 6, 6 of 6
T/C (T/C endpoint: mean survival time, dose: 250.0 micrograms/kg/injection, schedule: Q01DX009 (ip), vehicle: saline): 142 % of control
survivor count (T/C endpoint: mean survival time, dose: 500.0 micrograms/kg/injection, schedule: Q01DX009 (ip), vehicle: saline): 5 of 6
survivor count (T/C endpoint: mean survival time, dose: 1000.0 micrograms/kg/injection, schedule: Q01DX009 (ip), vehicle: saline): 5 of 6
survivor count (T/C endpoint: mean survival time, dose: 2000.0 micrograms/kg/injection, schedule: Q01DX009 (ip), vehicle: saline): 3 of 6
T/C (T/C endpoint: median survival time, dose: 0.25 mg/kg/injection, schedule: Q01DX009 (ip), vehicle: saline): 128 % of control
survivor count (T/C endpoint: median survival time, dose: 2.0 mg/kg/injection, schedule: Q01DX009 (ip), vehicle: saline): 5 of 6 and 6 of 6

CCCCCCNC(=O)Nc1cccc(Cl)c1C
survivor count [3]: 6 of 6

C[N+](C)(C)C1(Cc2ccc(F)cc2)c2ccccc2-c2ccccc21
survivor count (T/C endpoint: mean survival time, dose: 100.0 mg/kg/injection, schedule: Q04DX003 (ip), vehicle: saline with Tween-80): 0 of 6
survivor count [3]: 0 of 6
survivor count [4]: 0 of 6

COC(=O)c1ccccc1NC1=NCCO1
survivor count (T/C endpoint: mean survival time, dose: 100.0 mg/kg/injection, schedule: Q04DX003 (ip), vehicle: Klucel (hydroxypropylcellulose) (HPC)): 6 of 6

CCSC(C(O)C(O)C(O)C(O)CO)n1cnc2c(=S)nc[nH]c21 (stereo not given)
T/C (T/C endpoint: mean survival time, dose: 400.0 mg/kg/injection, schedule: Q01DX009 (ip), vehicle: saline with Tween-80): 130 % of control

O=C(COc1cccc(Cl)c1)Nc1ccc(CN2C(=O)c3ccccc3C2=O)cc1
survivor count (T/C endpoint: mean survival time, dose: 25.0 mg/kg/injection, schedule: Q01DX001 (ip), vehicle: Klucel (hydroxypropylcellulose) (HPC)): 3 of 3
survivor count (T/C endpoint: mean survival time, dose: 50.0 mg/kg/injection, schedule: Q01DX001 (ip), vehicle: Klucel (hydroxypropylcellulose) (HPC)): 3 of 3
survivor count (T/C endpoint: mean survival time, dose: 100.0 mg/kg/injection, schedule: Q01DX001 (ip), vehicle: Klucel (hydroxypropylcellulose) (HPC)): 3 of 3

N=C(N)SCSC(=N)N
survivor count (T/C endpoint: mean survival time, dose: 400.0 mg/kg/injection, schedule: Q04DX003 (ip), vehicle: saline): 3 of 6

CCOC(=O)c1ccc(NC(=O)NC(Cc2ccccc2)c2ccccc2)cc1 (stereo not given)
survivor count [3]: 6 of 6
survivor count (T/C endpoint: mean survival time, dose: 400.0 mg/kg/injection, schedule: Q04DX002 (ip), vehicle: saline with Tween-80): 3 of 3
survivor count [4]: 6 of 6

COC(=O)Nc1ccc(Cc2ccc(NC(=O)OC)cc2)cc1
T/C [5]: 143 and 146 % of control

NCCNc1ccc(NCCN)c2c1C(=O)c1ccccc1C2=O
T/C (T/C endpoint: mean survival time, dose: 1.56 mg/kg/injection, schedule: Q01DX009 (ip), vehicle: distilled water + Tween-80): 135 % of control
T/C (T/C endpoint: mean survival time, dose: 3.13 mg/kg/injection, schedule: Q01DX009 (ip), vehicle: distilled water + Tween-80): 147 % of control
survivor count (T/C endpoint: mean survival time, dose: 32.0 mg/kg/injection, schedule: Q01DX009 (ip), vehicle: acid diluted with saline): 1 of 6
survivor count (T/C endpoint: mean survival time, dose: 50.0 mg/kg/injection, schedule: Q01DX009 (ip), vehicle: distilled water + Tween-80): 0 of 6
survivor count (T/C endpoint: mean survival time, dose: 100.0 mg/kg/injection, schedule: Q01DX009 (ip), vehicle: distilled water + Tween-80): 0 of 6

CCCCCCCCC(C)C(=O)N1CCCC1C(=O)N1C(CC(=O)CC)CC(C)CC1C(=O)NC(C)C(=O)NC(C)(C)C(=O)NC(C)(C)C(=O)NC(C(=O)NC(C)C(=O)NC(C)(C)C(=O)NC(C)(C)C(=O)NC(C)CN(C)CCO)C(C)CC (stereo not given)
survivor count (T/C endpoint: mean survival time, dose: 5.0 mg/kg/injection, schedule: Q01DX009 (ip), vehicle: Klucel (hydroxypropylcellulose) (HPC)): 1 of 10
survivor count (T/C endpoint: mean survival time, dose: 10.0 mg/kg/injection, schedule: Q01DX009 (ip), vehicle: Klucel (hydroxypropylcellulose) (HPC)): 0 of 10

CCCCCCCCCCCCCCCC(=O)N1CCN(C)CC1
survivor count [5]: 3 of 6
survivor count [4]: 2 of 6

CN(C)CC1CCCCCC(Br)C1O (stereo not given)
survivor count (T/C endpoint: mean survival time, dose: 300.0 mg/kg/injection, schedule: Q01DX001 (ip), vehicle: saline): 0 of 6

CC([NH-])C(C)[NH-].[Cl][Pt+2][Cl] (stereo not given)
T/C (T/C endpoint: mean survival time, dose: 3.12 mg/kg/injection, schedule: Q04DX002 (ip), vehicle: Klucel (hydroxypropylcellulose) (HPC)): 126 % of control
T/C (T/C endpoint: mean survival time, dose: 6.25 mg/kg/injection, schedule: Q04DX002 (ip), vehicle: Klucel (hydroxypropylcellulose) (HPC)): 129 and 135 % of control
T/C (T/C endpoint: mean survival time, dose: 12.5 mg/kg/injection, schedule: Q04DX002 (ip), vehicle: Klucel (hydroxypropylcellulose) (HPC)): 148 % of control

CCCCCCCC(=O)/C=C/Sc1n[nH]c(=O)[nH]c1=O
survivor count (T/C endpoint: mean survival time, dose: 100.0 mg/kg/injection, schedule: Q01DX005 (ip), vehicle: distilled water + Tween-80): 5 of 6
survivor count (T/C endpoint: mean survival time, dose: 200.0 mg/kg/injection, schedule: Q01DX005 (ip), vehicle: distilled water + Tween-80): 0 of 6

NC(=O)c1ccc[n+](Cc2c(Cl)cccc2Cl)c1
survivor count [3]: 4 of 6
survivor count [4]: 0 of 6

C[Si](C)(C)OC1(C#N)C=CC(=O)C=C1
survivor count (T/C endpoint: mean survival time, dose: 12.5 mg/kg/injection, schedule: Q01DX001 (ip), vehicle: saline with Tween-80): 0 of 3
survivor count (T/C endpoint: mean survival time, dose: 25.0 mg/kg/injection, schedule: Q01DX001 (ip), vehicle: saline with Tween-80): 0 of 3
survivor count (T/C endpoint: mean survival time, dose: 100.0 mg/kg/injection, schedule: Q01DX001 (ip), vehicle: saline with Tween-80): 0 of 3
survivor count (T/C endpoint: mean survival time, dose: 200.0 mg/kg/injection, schedule: Q01DX001 (ip), vehicle: saline with Tween-80): 0 of 3
survivor count (T/C endpoint: mean survival time, dose: 400.0 mg/kg/injection, schedule: Q01DX001 (ip), vehicle: saline with Tween-80): 0 of 3
